Measurements taken from doi:10.1101/2021.02.17.431676.
Results are given in words; binding and its absence hold for the method and conditions named. Binding seen in cells or lysates may run through a third protein. Some binding calls cover weakened binding; strength is not graded here.

Chains of the proteins cited; added tags and fusions are not shown.
UniProt Q6ZWX6: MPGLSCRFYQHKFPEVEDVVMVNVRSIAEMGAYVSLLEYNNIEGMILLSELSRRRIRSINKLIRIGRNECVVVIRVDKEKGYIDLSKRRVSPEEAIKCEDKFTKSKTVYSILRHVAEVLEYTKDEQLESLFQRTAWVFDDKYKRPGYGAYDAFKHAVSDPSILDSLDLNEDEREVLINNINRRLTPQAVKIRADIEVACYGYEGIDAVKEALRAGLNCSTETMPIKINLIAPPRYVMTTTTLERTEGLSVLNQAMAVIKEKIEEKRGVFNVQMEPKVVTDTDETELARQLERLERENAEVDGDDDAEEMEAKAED

T1: Eukaryotic translation initiation factor 2A (UniProt Q8BJW6)
T1 sequence: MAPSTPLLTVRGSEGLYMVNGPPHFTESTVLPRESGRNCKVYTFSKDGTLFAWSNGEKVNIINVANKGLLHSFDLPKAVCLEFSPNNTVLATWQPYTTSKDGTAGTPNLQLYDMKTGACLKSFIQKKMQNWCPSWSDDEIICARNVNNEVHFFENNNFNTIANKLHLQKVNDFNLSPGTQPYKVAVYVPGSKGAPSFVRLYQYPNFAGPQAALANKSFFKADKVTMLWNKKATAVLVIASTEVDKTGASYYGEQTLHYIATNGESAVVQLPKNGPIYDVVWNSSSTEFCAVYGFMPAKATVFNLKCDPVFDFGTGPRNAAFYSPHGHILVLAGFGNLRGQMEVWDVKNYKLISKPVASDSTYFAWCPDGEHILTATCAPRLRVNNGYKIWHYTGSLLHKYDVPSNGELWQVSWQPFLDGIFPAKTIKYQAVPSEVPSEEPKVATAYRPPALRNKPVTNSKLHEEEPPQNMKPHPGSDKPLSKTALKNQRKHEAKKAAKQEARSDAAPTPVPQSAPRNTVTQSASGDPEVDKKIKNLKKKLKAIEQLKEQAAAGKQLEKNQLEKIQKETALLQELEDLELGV

B1: Eukaryotic translation initiation factor 2A (protein, UniProt Q8BJW6 1-581)
chain: T1 sequence

Legend:
[1] = target: T1, Eukaryotic translation initiation factor 2A; assay: co-IP
[2] = target: EIF2S1 (α subunit of the eukaryotic initiation factor 2) (UniProt Q6ZWX6); assay: co-IP

| Molecule | binding [1] | binding [2] |
| --- | --- | --- |
| EIF2S1 (α subunit of the eukaryotic initiation factor 2) (from UniProt Q6ZWX6 1-315) | binds | – |
| B1 | – | binds |
